Experimental data from PubChem BioAssay AID1347423 (Functional Genomics Laboratory (NCATS/FGL), 2020).
Hit rate of the full screen: of about 52,000 sequences, about 210 (0.4%) were called active.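 The calls were made as follows: active = gene whose silencing raises cell survival under the drug, median off-target-corrected z-score across its silencing RNAs 2 or more; inactive = the rest.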 The list shows a part of the results.

assay: Resistance to Poly (ADP-Ribose) Polymerase inhibitor: Gene Identification via Genome-wide siRNA Screen; settings: mouse BRCA2 R2336H ES cells, olaparib, CellTiter-Glo viability; active compounds read high
Summary of the method: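 Genome-wide siRNA screen (3 siRNAs/gene, 20 nM) in mouse ES cells carrying hypomorphic BRCA2 R2336H; olaparib 500 nM added 48 h post-transfection, CellTiter-Glo viability 72 h later. Normalized to plate-median negative control; MAD z-scores, gene median, seed-adjusted.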

Sequence	z-score
CCAGUGUGAUCAAAAACACTT against BC016188	inactive: -0.257
GGGCUUAAUCCAGGCCUUATT against C030004A17Rik	inactive: 0.0481
GGAGUGUAAGGAAUUUAGCTT against 1700027M21Rik	inactive: 0.484
GGUGAUCCUUAUGCUGUUATT against Bat8	inactive: 0.653
GCCAGCUACGUUUACGACUTT against Brms1	inactive: -0.385
GGAUUGAAACAGAUGAGAGTT against Gtf2e1	inactive: 0.305
GGUGGUUUCAACAAGUUCCTT against Dusp7	inactive: -0.392
CGAGUGCCAACUUUAGUUUTT against Hrh4	inactive: -0.455
CCGACCAAGCUCUAUGUGATT against Mrgprh	inactive: -0.668
GGAGUUCCUGGAGAAGAAATT against 2010012F05Rik	inactive: -3.55
GCAAAUACUCAAGUUCAGATT against Cpt1b	inactive: 0.514
GGCCAUUGUUCAGGUGUUUTT against Atp6v1b1	inactive: 0.215
CGGUUCUAGUUGAAAUUGUTT against Pcdha3	inactive: -0.125
GGCUUUAUGUAAGCAGAAGTT against Olfr948	inactive: -1.05
GCCAAUCACAUUCCCAUGCTT against Umps	inactive: 0.677
GCCCAUAACAAAACAUCUATT against Mcpt5	inactive: 1.1
GGGCAUGUGAAGAUGUGCGTT against Map2k3	inactive: -0.347
GCUUACAUGACUGCCUUAUTT against Raf1	inactive: -1.34
GGAAGAUGAUUCAGAUUUGTT against BC054059	inactive: 1.27
GCCACCCUAACAUUGUUUCTT against 4.93E+23	inactive: 1.51
CGGUCUUCCCGUGGUUCAATT against 4921507A12	inactive: -0.479
GAUAAUGACCAGGCUACCATT against Magea7	inactive: 1.19

Sequence	z-score
GGUAGACACCUUGUUCUUATT against Nap1l3	inactive: 0.898
ACAAGGGAGGUAAAAAGAGTT against Olfr92	inactive: -0.0397
GGAAAGUAUCCUGACAUUATT against Lig1	inactive: -0.902
CCCUUUAUAAGGAAAUGUGTT against BC015286	inactive: -1.63
GCUGUUUUUACCUAGUUAGTT against Cpsf6	inactive: -0.0768
GCAGGAGAGUUUUGUUUUUTT against Mterf	inactive: 1.37
GCGCACACCAUGGAUAGAATT against 2810007J24Rik	inactive: 1.95
CCCAGUAUCUCAUGUGCCATT against Aqp5	inactive: 0.905
GCUUGUGAAAAAUUAUGAGTT against Ipo7	inactive: -1
GGAAUAUGGAGCCUGAAAATT against Nudt15	inactive: -0.0588
GGAGGAUUUAAACCGGGAGTT against Ugt1a10	inactive: -1.12
GCCAUAGGACCUAAAAGACTT against D230016N13Rik	inactive: -0.0507
GCCGAGUGAAAGCAAUUAUTT against Scg3	inactive: 0.882
CCUCCACUCACUUGUGACUTT against Slc35a4	inactive: -1.48
GCUCAAAUUGCACUAUCUATT against Gpt2	inactive: -0.142
GCGAACAUCCAGAGAAUGUTT against 1110012J17Rik	inactive: 1.63
CCUGAAUUACCUCAUAUAUTT against Stat5b	inactive: 0.922
GGUUGACCCACUGAAAAUUTT against Marveld1	inactive: -1.55
GGAAUUGGUAGACCACACCTT against Smr1	inactive: -1.08
GGAUUUCUGGAACCUUCAUTT against Caskin2	inactive: -0.941
GGAAGUGUUUGUUCUAAUCTT against 9630019K15Rik	inactive: -0.161
GGCUGGUGCUGAAUAUCUUTT against 4930539E08Rik	inactive: 1.9

Sequence	z-score
GGCAAAGAUCUUAUGGAGATT against Csf3r	inactive: 2.11
GCUAACGGUGUAACCAAGATT against A930010I20Rik	inactive: -0.545
GCCUGAUCCCAAUCGUGUATT against Smr2	inactive: -1.58
GGGACUUUAUAAAGAACUGTT against Ranbp1	inactive: -0.398
CCUACAGUCAAGCAGAGCCTT against Klri1	inactive: 0.167
GGAAGUGGUAACUGUGACATT against Cklfsf2a	inactive: -1.42
GGAGAAAAUUCAAGUCACCTT against Olfr663	inactive: 0.0855
GGACAAGAUGAUCUGCCUATT against Lrrc8	inactive: -3.26
CGUUCUAGUGACAUGUACATT against Sh2d3c	inactive: 1.08
GCGAUAUGAAUAUCAUCUUTT against Fbxo22	inactive: 0.441
GGCCGAGGAGAAAUUCAUCTT against Mapk8ip3	inactive: -0.379
GGUCACCUUAACCGAGAAGTT against Phkg1	inactive: 1.23
GGUUCCUAGAAAGAAAGUGTT against Lypla3	inactive: 1.36
CGAGAGGUGAUCUUAGAUUTT against Qscn6l1	inactive: 1.77
GGCAAAAAUUUUUUCAUGCTT against Abcb4	inactive: -0.414
GUCUGAGCGACUGUCUCCATT against Mef2b	inactive: 1.11
GGCUGAGGUUCGAGUGUAUTT against Rps6ka4	inactive: -0.728
CCAUCAAUGGGAUAACUAATT against Rnaseh1	inactive: -0.619
GGAAAGAAAAACGUAGGCGTT against 4933402J07	inactive: -1.41
GGGUUUCUUGAUUCUGACCTT against Ccl5	inactive: 0.356
GGUACUGGAAAUCUGUAUGTT against Nlgn1	inactive: -0.0487
CGAAAGAUGUCUACGUGCCTT against Mrpl27	inactive: 0.508

In another format: entries from further up
Sequence | z-score
CGUUCUAGUGACAUGUACATT against Sh2d3c | inactive: 1.08
GCGAUAUGAAUAUCAUCUUTT against Fbxo22 | inactive: 0.441
GGCCGAGGAGAAAUUCAUCTT against Mapk8ip3 | inactive: -0.379
GGUCACCUUAACCGAGAAGTT against Phkg1 | inactive: 1.23
GGUUCCUAGAAAGAAAGUGTT against Lypla3 | inactive: 1.36
CGAGAGGUGAUCUUAGAUUTT against Qscn6l1 | inactive: 1.77
GGCAAAAAUUUUUUCAUGCTT against Abcb4 | inactive: -0.414
GUCUGAGCGACUGUCUCCATT against Mef2b | inactive: 1.11
GGCUGAGGUUCGAGUGUAUTT against Rps6ka4 | inactive: -0.728
CCAUCAAUGGGAUAACUAATT against Rnaseh1 | inactive: -0.619
GGAAAGAAAAACGUAGGCGTT against 4933402J07 | inactive: -1.41
GGGUUUCUUGAUUCUGACCTT against Ccl5 | inactive: 0.356
GGUACUGGAAAUCUGUAUGTT against Nlgn1 | inactive: -0.0487
